These are yes or no findings as the source states them, for the method shown. Binding seen in cells or lysates may run through a third protein. Tags and fused reporters may be left off the sequences shown.
Biological target: GST-Nck1 SH2 domain (UniProt P16333)
Test: pull-down; GST fusion proteins on glutathione agarose beads mixed with total cell lysates of HEK293 cells overexpressing FLAG-PTP1B for 3 h at 4°C; washed with lysis buffer; immunoblot with anti-FLAG; only the target purified

- binding: no binding
B1: FLAG-rat PTP1B (enzyme, UniProt P20417 1-432)
chain: MEMEKEFEQIDKAGNWAAIYQDIRHEASDFPCRIAKLPKNKNRNRYRDVSPFDHSRIKLHQEDNDYINASLIKMEEAQRSYILTQGPLPNTCGHFWEMVWEQKSRGVVMLNRIMEKGSLKCAQYWPQKEEKEMVFDDTNLKLTLISEDVKSYYTVRQLELENLATQEAREILHFHYTTWPDFGVPESPASFLNFLFKVRESGSLSPEHGPIVVHCSAGIGRSGTFCLADTCLLLMDKRKDPSSVDIKKVLLEMRRFRMGLIQTADQLRFSYLAVIEGAKFIMGDSSVQDQWKELSHEDLEPPPEHVPPPPRPPKRTLEPHNGKCKELFSNHQWVSEESCEDEDILAREESRAPSIAVHSMSSMSQDTEVRKRMVGGGLQSAQASVPTEEELSPTEEEQKAHRPVHWKPFLVNVCMATALATGAYLCYRVCFH

From publication PMC4236421
